Several values for one entry are separate records, joined by “and”; a condition that tells them apart may be missing. Identical values can stand only once. Counter-ions that a name gives are not always drawn. Some of the results follow. Repeats are few or missing, and single values can be far off.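 Labelled rat cortical synaptosomes were engulfed by primary human fetal astrocytes. Engulfment equaled a red/green ratio, corrected for calcein live-cell signal and normalized to the plate median. Compounds were toxic when calcein dropped over 30%, and reduced phagocytosis when below 70% of the median above 5 µM.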
How the values were obtained:
Conditions in all cases: 24 h
Human fetal astrocytes [1] = assay: loss of total cells relative to no-compound high-control median (toxicity); higher = more toxic (fewer cells)
Human fetal astrocytes [2] = assay: as above; remark: listed apart in the source
Human fetal astrocytes [3] = assay: synaptosome phagocytosis (pHrodo/calcein intensity ratio) relative to plate median of data wells; higher = more phagocytosis
Human fetal astrocytes [4] = assay: as above; remark: listed apart in the source

SMILES	loss of total cells (Human fetal astrocytes [1]; 1.39 µM)	loss of total cells (Human fetal astrocytes [1]; 2.78 µM)	loss of total cells (Human fetal astrocytes [1]; 5.56 µM)	loss of total cells (Human fetal astrocytes [1]; 11.11 µM)	loss of total cells (Human fetal astrocytes [1]; 22.22 µM)	loss of total cells (Human fetal astrocytes [2]; 1.39 µM)	loss of total cells (Human fetal astrocytes [2]; 2.78 µM)	loss of total cells (Human fetal astrocytes [2]; 5.56 µM)	loss of total cells (Human fetal astrocytes [2]; 11.11 µM)	loss of total cells (Human fetal astrocytes [2]; 22.22 µM)	synaptosome phagocytosis (Human fetal astrocytes [3]; 1.39 µM)	synaptosome phagocytosis (Human fetal astrocytes [3]; 2.78 µM)	synaptosome phagocytosis (Human fetal astrocytes [3]; 5.56 µM)	synaptosome phagocytosis (Human fetal astrocytes [3]; 11.11 µM)	synaptosome phagocytosis (Human fetal astrocytes [3]; 22.22 µM)	synaptosome phagocytosis (Human fetal astrocytes [4]; 1.39 µM)	synaptosome phagocytosis (Human fetal astrocytes [4]; 2.78 µM)	synaptosome phagocytosis (Human fetal astrocytes [4]; 5.56 µM)	synaptosome phagocytosis (Human fetal astrocytes [4]; 11.11 µM)	synaptosome phagocytosis (Human fetal astrocytes [4]; 22.22 µM)
CC(C)NCC(O)COc1cccc2ccccc12 (racemic) [(±)-Propranolol hydrochloride]	-17.5%	-5.9%	7%	-4.8%	7.5%	10.8%	2.1%	14.7%	12.5%	32.3%	30.8%	39.6%	36.9%	39.5%	20.8%	98.7%	109%	87.9%	84.2%	92.9%
C[C@](N)(Cc1ccc(O)c(O)c1)C(=O)O [L-alpha-Methyl DOPA]	-26.1%	-6.8%	-5.2%	12.4%	4.7%	-19.1%	5.2%	1.5%	-11.7%	11.3%	108%	85%	88.8%	64.4%	97.6%	81.7%	118%	94.6%	110%	106%
CCCC(=O)Nc1ncnc2c1ncn2[C@@H]1O[C@@H]2COP(=O)(O)O[C@H]2[C@H]1OC(=O)CCC						15.5%	10.5%	10.1%	13.8%	13.6%	120%	126%	137%	126%	62.6%					
NS(=O)(=O)c1cc2c(cc1C(F)(F)F)NCNS2(=O)=O						18.1%	-22.7%	0%	16.4%	34.3%	106%	135%	122%	102%	125%					
COc1cc(O)c2c(=O)cc(C)oc2c1CC=C(C)C						16.3%	10%	-9.2%	45.8%	-9.3%	157%	79.3%	86.2%	112%	91.2%					
CC(=O)Oc1ccc(C(c2ccc(OC(C)=O)cc2)c2ccccn2)cc1						-16.6%	-2.7%	0.3%	-31.3%	18.7%	115%	112%	103%	144%	105%					
O=NN(CCCl)C(=O)NCCCl [Carmustine]	-12.8%	-9.6%	-6.9%	-17.5%	-4.1%	-33.1%	-15.1%	0%	11.5%	4%	90%	91.3%	99%	75.4%	93.7%	95.1%	111%	93.2%	134%	122%
CO[C@@]1(NC(=O)CSCC#N)C(=O)N2C(C(=O)O)=C(CSc3nnnn3C)CS[C@@H]21						-14.9%	-11.3%	-2.1%	6.3%	17%	114%	97%	110%	119%	99%					
CC(C)(c1ccc(O)cc1)c1ccc(O)cc1						12.6%	-9.7%	2.9%	17.2%	18.2%	71.5%	66.9%	93%	103%	124%					
C=CCCCCCCCCCCCC(O)CC(O)COC(C)=O (stereo unspecified)						-7.6%	4.7%	-7.2%	-19.7%	4.5%	104%	83.4%	56.2%	30.2%	71.2%					
O=c1oc2ccccc2c(O)c1Cc1c(O)c2ccccc2oc1=O						8.6%	-20%	-9.8%	7.8%	-6.4%	115%	93.3%	117%	82.6%	92.4%					
COc1ccc2c(c1)[C@@]1(C)CC[C@@H](O)C[C@@H]1CC2 [12-METHOXY-4,4-BISNOR-5alpha-8,11,13-PODOCARPATRIEN-3-OL]						-1.8%	-2.7%	18.3%	16.8%	16.7%	97.2%	131%	122%	111%	125%					
CCn1cc(C(=O)O)c(=O)c2cnc(N3CCNCC3)nc21						1.1%	-1.1%	7.2%	-2.1%	9.8%	94.5%	81.5%	82.4%	97.7%	126%					
CN1CCC[C@@H]1Cc1c[nH]c2ccc(CCS(=O)(=O)c3ccccc3)cc12						-2.5%	-15.9%	29%	8.4%	19.6%	71.7%	63%	98.1%	92.9%	136%					
NS(=O)(=O)c1cc2c(cc1Cl)NC(C1CC3C=CC1C3)NS2(=O)=O (stereo unspecified) [Cyclothiazide]	2.9%	8.5%	10.7%	-21.1%		31.5%	-29.4%	-0.6%	-0.3%	10.3%	124%	97.8%	88.8%	93.7%	96.3%	67.7%	80.4%	68.5%	76.4%	
CCCCCCNC(=O)n1cc(F)c(=O)[nH]c1=O						7.6%	11.9%	15.2%	14.6%	0%	83.3%	112%	138%	130%	102%					

SMILES	loss of total cells (Human fetal astrocytes [1]; 1.39 µM)	loss of total cells (Human fetal astrocytes [1]; 2.78 µM)	loss of total cells (Human fetal astrocytes [1]; 5.56 µM)	loss of total cells (Human fetal astrocytes [1]; 11.11 µM)	loss of total cells (Human fetal astrocytes [1]; 22.22 µM)	loss of total cells (Human fetal astrocytes [2]; 1.39 µM)	loss of total cells (Human fetal astrocytes [2]; 2.78 µM)	loss of total cells (Human fetal astrocytes [2]; 5.56 µM)	loss of total cells (Human fetal astrocytes [2]; 11.11 µM)	loss of total cells (Human fetal astrocytes [2]; 22.22 µM)	synaptosome phagocytosis (Human fetal astrocytes [3]; 1.39 µM)	synaptosome phagocytosis (Human fetal astrocytes [3]; 2.78 µM)	synaptosome phagocytosis (Human fetal astrocytes [3]; 5.56 µM)	synaptosome phagocytosis (Human fetal astrocytes [3]; 11.11 µM)	synaptosome phagocytosis (Human fetal astrocytes [3]; 22.22 µM)	synaptosome phagocytosis (Human fetal astrocytes [4]; 1.39 µM)	synaptosome phagocytosis (Human fetal astrocytes [4]; 2.78 µM)	synaptosome phagocytosis (Human fetal astrocytes [4]; 5.56 µM)	synaptosome phagocytosis (Human fetal astrocytes [4]; 11.11 µM)	synaptosome phagocytosis (Human fetal astrocytes [4]; 22.22 µM)
C#CCN(C)Cc1ccccc1 [Pargyline hydrochloride]	-6.5%	-24.3%	-7.3%	-12.6%	-23%	-12.4%	-14.9%	5.7%	-6.3%	2.3%	112%	128%	111%	91.4%	87.3%	98.1%	117%	101%	102%	111%
CCOC(=O)C(=O)C1(C(=O)OCC)Oc2cc(OC)cc(OC)c2C(=O)C1c1ccccc1 (stereo unspecified)						24.3%	7.3%	-24.4%	31%	9.3%	123%	112%	91.8%	117%	117%					
C[C@@H]1C(=O)O[C@H]2C[C@@]34[C@H]5C[C@@H](C(C)(C)C)[C@]36[C@@H](OC(=O)[C@@H]6O)O[C@@]4(C(=O)O5)[C@]21O						16.2%	6.1%	3.6%	2.1%	27.3%	144%	142%	110%	113%	126%					
CCN(CC)CCNC(=O)c1cc(Cl)c(N)cc1OC [Metoclopramide hydrochloride]	-11.8%	-8.6%	8%	12.4%	18.7%	-15.8%	-8.8%	-4.5%	-2.3%	0%	84.5%	79.5%	89.9%	101%	78.6%	116%	131%	87.4%	96.8%	103%
O=C(O)c1ccccc1C(=O)Nc1ccc(S(=O)(=O)Nc2nccs2)cc1							-4.6% and 4%	3.3% and -3.9%	-8.6% and -19.5%	8.5% and 6.8%	102% and 111%	101% and 93.4%	112%	100% and 86.4%	109% and 96.9%					
COc1ccc2c(c1)OC/C(=C\c1ccc(OC)c(O)c1)C2=O						-19.2%	-10%	32.8%	11.6%	27.8%	86.9%	111%	130%	83.4%	85.9%					
Nc1ccc(S(=O)(=O)Nc2nccs2)cc1						-16.9%	-8.5%	2.8%	0.3%	21%	98.7%	97.1%	88.6%	111%	120%					
CC(=O)OCC1=C(C(=O)O)N2C(=O)[C@@H](NC(=O)Cc3cccs3)[C@H]2SC1 [Cephalothin sodium]	3.7%	-11.7%	-14.3%	-11.2%	-13.2%	-10%	-8.8%	-9.9%	-27.3%	8.5%	114%	100%	95.6%	111%	131%	94.5%	117%	114%	129%	119%
CNCCCN1c2ccccc2CCc2ccccc21 [Desipramine hydrochloride]	-7.9%	-12.8%	13.2%	19.3%	9.6%	-2.1%	-24.1%	-16.7%	8.4%	8.8%	89.6%	72.6%	63.7%	57.4%	34.8%	115%	98.3%	55.8%	81.1%	52.2%
C[C@H](CCC(=O)O)[C@H]1CC[C@H]2[C@@H]3C(=O)C[C@@H]4CC(=O)CC[C@]4(C)[C@H]3CC(=O)[C@]12C						11.6% and 3.9%	-13.9% and 10.5%	-7.7% and 4.9%	6.6% and -0.9%		99.6% and 113%	104% and 84.4%	96.5% and 104%	102% and 95.8%	118% and 116%					
CCCCCCCCCCCCCCCCCCCCCCO						19.2%	-8%	-18.3%	24.5%	-3.3%	144%	96.7%	112%	113%	121%					
CCN(CC)CCNC(=O)c1ccc(N)cc1 [Procainamide hydrochloride]	-4%	-11.7%	-11.2%	1.1%	-23.9%	8.6%	-20%	-1.4%	4.9%	-8.8%	133%	90.6%	139%	112%	110%	124%	136%	105%	123%	115%
C[C@H](CS)C(=O)N1CCC[C@H]1C(=O)O [Captopril]	-1.5%	-3.6%	-23.5%	-8.5%	-3.4%	20.5%	-5.8%	-8.4%	18.2%	14.9%	109%	108%	102%	106%	120%	158%	113%	106%	99.4%	116%
NNc1nncc2ccccc12 [Hydralazine hydrochloride]	2.9%	-11.1%	-3.3%	-10.3%	2.4%	-2.1%	-24.7%	-8.4%	-8.4%	-0.9%	92.1%	108%	108%	85.6%	59%	126%	106%	100%	114%	118%
OCCN(CCO)c1nc(N2CCCCC2)c2nc(N(CCO)CCO)nc(N3CCCCC3)c2n1 [Dipyridamole]	-10.5%	-13.7%	-5.8%	9.4%	-8%	5%	-17.3%	13.2%	-8.4%	25.2%	104%	78.2%	109%	89.5%	94.5%	96.4%	80%	91.2%	93.9%	98.7%

— the supplement of paper PMC10689618
